From patent publication US12612375B2, “Antimicrobial and anticancer agents” (Persevere Therapeutics Inc., priority 2021, dated 2026)
For some assays here: At least one compound was matched to its structure with a doubt left. Some of these results come from one statement about several compounds together.

Assays:
AsPc1 = test: Proliferation assay AsPc1; type: cell-based; settings: AsPc1, incubation 6 h, compared to untreated control (NC)
[1] = Human fresh blood stability / half-life at 37° C. in vitro; type: in vitro ADME; settings: K2-EDTA human blood spiked at 256 μM
Method: The half-life of each of compounds 2289, 2293, and 2296 in human fresh blood was measured at 37° C. in vitro. For 2289 and 2293 into 2250, K2-EDTA human blood was spiked with 2289 or 2293 at 256 μM; 2250 at 26 μM and 2244 at 26 μM (n=1). The pool remained at 37° C. for 20-25 min and then an aliquot was centrifuged (2500 g for at least 5 minutes at 4° C.). After centrifugation the human plasma was collected and immediately frozen at −80° C. This aliquot corresponded to the T0. The remaining pool was aliquoted and kept at 37° C. An aliquot was collected, centrifuged (2500 g for at least 5 minutes at 4° C.) and the recovered plasma was frozen at −80° C. after at least 0.25, 0.5, 1, 6, 8, 24 and 48 hours. Stability was determined by measuring the 2289 and 2293 peak area at each time point compared to T0. For 2296 into its metabolite 1-hydoxypropane-2-sulfonamide, K2-EDTA human blood was spiked with 2296 at 256 μM and 1-hydroxypropane-2-sulfonamide at 26 μM (n=1). The pool remained at 37° C. for 20-25 min and then an aliquot was centrifuged (2500 g for at least 5 minutes at 4° C.). […] An aliquot was collected, centrifuged (2500 g for at least 5 minutes at 4° C.) and the recovered plasma frozen at −80° C. after at least 0.5, 1, 3, 6, 8 and 24 hours/ Stability was determined by measuring 2296 peak area at each time point compared to T0.

Panc TuI = test: Proliferation assay Panc TuI; type: cell-based, human; settings: incubation 6 h, compared to untreated control (NC)
BxPc3 cells = test: MTT cytotoxicity assay BxPc3; type: cell-based; settings: BxPc3, after 24 h, compared to untreated control (NC), t-test
BxPc3 = test: Proliferation assay BxPc3; type: cell-based; settings: BxPc3, incubation 6 h, compared to untreated control (NC)
Panc TuI cells = test: MTT cytotoxicity assay Panc TuI; type: cell-based, human; settings: after 24 h, compared to untreated control (NC), t-test
AsPc1 cells = test: MTT cytotoxicity assay AsPc1; type: cell-based; settings: AsPc1, after 24 h, compared to untreated control (NC), t-test
Method: Cells are seeded individually to obtain a sub confluent monolayer in a 96 well plate format and are incubated for 24 hours prior treatment. To examine a dose response regarding the antineoplastic activity cells are incubated with increasing concentrations (100, 200, 500, 1000, 1500, 2000 μmol/l) of all different Oxathiazinane derivatives and ddH2O as control for 24 and 48 hours. After the exposition time 10 μl MTT (3-(4,5-Dimethylthiazol-2-yl)-2,5-diphenyltetrazoliumbromid) reagent (5 mg/ml) is added and incubated for 2 hours before violet Formazan crystals are dissolved in 100 μl DMSO (Dimethylsulfoxide). Viability of the cells can be analyzed by using a microplate absorbance reader by measuring the OD560 (ASYS, UVM340, Anthos Mikrosystheme GmbH, Germany). The assay is performed using 8 replicates in three independent experiments with consecutive passages.
A MTT Cytotoxicity assay of the cell line AsPc1 with different oxathiazine derivatives was performed.

Bacterial Strains Tested = test: Agar diffusion test, overall grade; type: cell-based; parameters: key to the marks not given beside the values; settings: 10 mm disk with 10 mg test substance, 37° C., 24 hours

SMILES | concentration from which a significant impact on cell proliferation is shown (AsPc1) | time within which compound metabolizes or degrades into 2250 [1] | concentration from which a significant impact on cell proliferation is shown (Panc TuI) | concentration from which a significant impact on cell viability is shown (BxPc3 cells) | concentration from which a significant impact on cell proliferation is shown (BxPc3) | concentration from which a significant impact on cell viability is shown (Panc TuI cells) | concentration from which a significant impact on cell viability is shown (AsPc1 cells) | Zone of inhibition (grade) (Bacterial Strains Tested)
CCC(=O)N1COCCS1(=O)=O [Compound 2293] | ≥ 500 µM | 20 to 25 min | ≥ 500 µM | ≥ 100 µM | ≥ 500 µM | ≥ 100 µM |  | 
CC1COCNS1(=O)=O (centres unmarked) [Compound 2296] | ≥ 500 µM |  | ≥ 500 µM | ≥ 100 µM | ≥ 500 µM | ≥ 100 µM | ≥ 100 µM | 
O=S1(=O)CCOCN1 [Compound 2250] |  |  |  |  |  |  |  | ++
CC(=O)N1COCCS1(=O)=O [Compound 2289] | ≥ 500 µM | 20 to 25 min | ≥ 500 µM | ≥ 100 µM | ≥ 500 µM | ≥ 100 µM | ≥ 100 µM | 
